Values from PubChem BioAssay AID652243 (Drosophila RNAi Screening Center, 2013)

- Purpose: 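Fly genes required for human androgen receptor driven transcription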 (primary screen)
- System: Drosophila S2R+ cells
- Knock-down reagent: long dsRNA against Drosophila genes
- Timing: 72 h (48 h, then 24 h hormone)
- Conditions: synthetic androgen R1881 at 10 nM for 24 h
- Measured: 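Per-well raw luminescence of the androgen-driven firefly reporter and of the Renilla control, two replicates each, without normalisation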
- Direction: firefly reporter light: higher = more light from androgen-responsive reporter; Renilla control light: higher = more constitutive control signal (cell number, transfection)
- Hit rule: 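Hit when the log firefly-to-Renilla ratio dropped or increased by a fixed fold versus the mean of GFP or LacZ controls across duplicate plates; lowering cut given as 1.5 and as 3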
- Calls: active = hit: reporter lowered or raised; inactive = no hit
The deposit covers about 24,000 reagents; this is a random part of those that have a named target and a result. Over the whole deposit, 246 (1%) are marked active. 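Plates not normalised; calls are printed but the firefly/Renilla ratio behind them is not deposited; fold cut for lowering reported inconsistently.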 The raw values are shown without normalisation. The record does not give: the amount of reagent.

After knock-down of CG6337 [SID104186769] the results were firefly reporter light, replicate 1 = 1.28e5; firefly reporter light, replicate 2 = 1.64e5; Renilla control light, replicate 1 = 3.89e6; Renilla control light, replicate 2 = 3.89e6; inactive.
After knock-down of CG6337 [SID104201508] the results were firefly reporter light, replicate 1 = 5.58e5; firefly reporter light, replicate 2 = 5.05e5; Renilla control light, replicate 1 = 1.71e6; Renilla control light, replicate 2 = 1.62e6; inactive.
After knock-down of Pi4KIIIalpha [SID104198447] the results were firefly reporter light, replicate 1 = 2.84e5; firefly reporter light, replicate 2 = 2.69e5; Renilla control light, replicate 1 = 3.18e6; Renilla control light, replicate 2 = 3.02e6; inactive.
With knock-down of Pi4KIIIalpha [SID104214545], the record shows inactive.
Against Pi4KIIIalpha [SID104214546], the entry reads inactive.
Depletion of CG11670 [SID104194134] resulted in: firefly reporter light, replicate 1 = 68712; firefly reporter light, replicate 2 = 55646; Renilla control light, replicate 1 = 9.86e5; Renilla control light, replicate 2 = 9.85e5; inactive.
With knock-down of CG3527 [SID104198099], the screen gave firefly reporter light, replicate 1 = 3.09e5; firefly reporter light, replicate 2 = 2.53e5; Renilla control light, replicate 1 = 4.03e6; Renilla control light, replicate 2 = 3.52e6; inactive.
After knock-down of CG3527 [SID104206994], the screen gave firefly reporter light, replicate 1 = 4.84e5; firefly reporter light, replicate 2 = 6.10e5; Renilla control light, replicate 1 = 8.85e5; Renilla control light, replicate 2 = 1.26e6; inactive.

Records above whose target name starts with C or c (5):
CG6337 [SID104186769] | firefly reporter light, replicate 1: 1.28e5; firefly reporter light, replicate 2: 1.64e5; Renilla control light, replicate 1: 3.89e6; Renilla control light, replicate 2: 3.89e6; call: inactive
CG6337 [SID104201508] | firefly reporter light, replicate 1: 5.58e5; firefly reporter light, replicate 2: 5.05e5; Renilla control light, replicate 1: 1.71e6; Renilla control light, replicate 2: 1.62e6; call: inactive
CG11670 [SID104194134] | firefly reporter light, replicate 1: 68712; firefly reporter light, replicate 2: 55646; Renilla control light, replicate 1: 9.86e5; Renilla control light, replicate 2: 9.85e5; call: inactive
CG3527 [SID104198099] | firefly reporter light, replicate 1: 3.09e5; firefly reporter light, replicate 2: 2.53e5; Renilla control light, replicate 1: 4.03e6; Renilla control light, replicate 2: 3.52e6; call: inactive
CG3527 [SID104206994] | firefly reporter light, replicate 1: 4.84e5; firefly reporter light, replicate 2: 6.10e5; Renilla control light, replicate 1: 8.85e5; Renilla control light, replicate 2: 1.26e6; call: inactive

The list goes on.
CG13856 [SID104194498] showed firefly reporter light, replicate 1 = 2.43e5; firefly reporter light, replicate 2 = 2.39e5; Renilla control light, replicate 1 = 2.76e6; Renilla control light, replicate 2 = 3.13e6; inactive.
After knock-down of srl [SID104192132], the record shows firefly reporter light, replicate 1 = 79594; firefly reporter light, replicate 2 = 1.34e5; Renilla control light, replicate 1 = 2.62e6; Renilla control light, replicate 2 = 2.41e6; inactive.
srl [SID104208105] showed firefly reporter light, replicate 1 = 2.40e5; firefly reporter light, replicate 2 = 3.55e5; Renilla control light, replicate 1 = 6.67e5; Renilla control light, replicate 2 = 6.67e5; inactive.
With knock-down of Rev1 [SID104188056] the results were firefly reporter light, replicate 1 = 9.60e5; firefly reporter light, replicate 2 = 8.03e5; Renilla control light, replicate 1 = 1.59e6; Renilla control light, replicate 2 = 1.43e6; inactive.
